Laboratory results taken from PubChem BioAssay AID1671190 (National Center for Advancing Translational Sciences (NCATS), 2021).
The campaign covered roughly 580,000 compounds. About 6,100 (1.1%) were called active. The inconclusive results got no clear call from the source; some entries with a clear call stand among them for comparison. Calls follow the shape of the dose curve; as a rule, active = well fitted inhibition curve with a large enough effect; inconclusive = small, poorly fitted or top-dose-only effect, or another doubt; inactive = no such curve, though single readings can be large or run the other way. A potency beside an inconclusive call is a rough fit, not a confirmed value.

Protein sequences, listed by entry. Tags and fused reporters are not part of them.
UniProt P18054, whole entry, looked up: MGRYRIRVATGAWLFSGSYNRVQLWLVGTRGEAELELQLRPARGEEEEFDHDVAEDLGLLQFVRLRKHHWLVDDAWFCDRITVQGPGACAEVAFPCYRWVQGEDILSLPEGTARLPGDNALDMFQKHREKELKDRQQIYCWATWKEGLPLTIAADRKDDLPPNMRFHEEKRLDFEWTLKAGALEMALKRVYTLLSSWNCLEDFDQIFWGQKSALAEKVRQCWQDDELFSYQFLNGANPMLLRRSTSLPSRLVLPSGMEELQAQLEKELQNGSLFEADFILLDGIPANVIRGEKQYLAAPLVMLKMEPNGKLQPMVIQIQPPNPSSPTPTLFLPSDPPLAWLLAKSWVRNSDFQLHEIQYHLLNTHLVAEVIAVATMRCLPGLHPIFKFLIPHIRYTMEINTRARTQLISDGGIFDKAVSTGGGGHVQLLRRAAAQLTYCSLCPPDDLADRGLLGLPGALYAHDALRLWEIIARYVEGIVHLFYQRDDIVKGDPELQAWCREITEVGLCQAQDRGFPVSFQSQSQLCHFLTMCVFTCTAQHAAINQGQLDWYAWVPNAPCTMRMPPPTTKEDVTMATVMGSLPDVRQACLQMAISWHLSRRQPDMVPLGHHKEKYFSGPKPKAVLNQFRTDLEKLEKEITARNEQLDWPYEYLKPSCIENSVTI

target: Polyunsaturated fatty acid lipoxygenase ALOX12 (Homo sapiens) (UniProt P18054); assay: Primary qHTS assay for inhibitors of human arachidonate 12S-lipoxygenase (ALOX12): Round 2; settings: purified 12hLO, xylenol orange hydroperoxide absorbance; activity change, negative = inhibition: at 108 µM (top of the series) unless noted
Outline: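 Purified human 12hLO at 150 nM in 25 mM Hepes, 0.01% Triton X-100, pH 7.0, preincubated 15 min at room temperature with compound. Reaction started with 40 uM arachidonic acid, 30 min at room temperature. Hydroperoxide measured by Fe-xylenol orange, 573/405 nm absorbance ratio.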
% is scaled to controls: 0 for no effect and ±100 for the full control effect; potency is read from the fitted curve at half-maximal effect.

Structure (SMILES)	Potency	activity change, negative = inhibition
Cc1ccc(-c2cc3ccccc3[nH]2)cc1	inconclusive: 0.251 µM [inhibitor, full curve, poor fit]	–
Cc1cc(C)cc(C(=O)N(Cc2ccco2)c2c(N)n(Cc3ccccc3)c(=O)[nH]c2=O)c1	inactive	–
Cc1ccc(S(=O)(=O)Nc2cc(-c3ccc(Cl)cc3)nn2C)cc1	inactive	–
Cc1cccc(OCCn2cnc(Cl)c2Cl)c1	inconclusive: 50.1 µM [inhibitor, partial curve, poor fit]	–
O=C(NCCc1ccc(Cl)cc1)C1CCCN1C(=O)Nc1ccccc1 (stereo not drawn)	inconclusive: 126 µM [inhibitor, single point]	–
c1ccc(CCc2nnc(CCc3ccccc3)s2)cc1	inconclusive: 20 µM [inhibitor, partial curve, poor fit]	–
CCOC(=O)c1cccc(NC(=O)CC2C(=O)N(c3ccccc3)C(=O)N2Cc2ccco2)c1 (stereo not drawn)	–	inconclusive: -35.3% [inhibitor]
Cc1nc2c(OCc3ccccc3)cccn2c1N(C)C(=O)C1CCCCC1	active: 50.1 µM	–
Cc1ccc(S(=O)(=O)N[C@H]2CC(C)(C)[C@@H]3C[C@@](C)(O)CC[C@]23CCC(=O)NCCc2c[nH]c3ccccc23)cc1	inconclusive: 44.7 µM [inhibitor, partial curve, poor fit]	–
CCCCc1ccc(Nc2nc(NCCO)c3nccnc3n2)cc1	inconclusive: 44.7 µM [inhibitor, single point]	–
C=CCNC(=O)CCc1c(CC)nn(-c2ccc(OC)cc2)c1Oc1ccccc1F	inactive	–
Cc1cccc2c1nc1n2[C@@H](CNCc2nc3ccccc3n2C)COC1	inactive	–
CN1CCN(c2nc(-c3cccs3)cc(C(F)(F)F)n2)CC1	inactive	–
CC(C)C1CC2=C(C(=O)OC(C)(C)O2)C(c2ccc(F)cc2)O1 (stereo not drawn)	inconclusive: 112 µM [inhibitor, single point]	–
COc1ccc(S(=O)(=O)Nc2ccccc2OC)cc1C	inactive	–
O=C1NC[C@H](CCCCN2C[C@@H](Cc3ccccc3)N(Cc3ccccc3)C(=O)C2=O)N(CCC2CCCCC2)C1=O	inconclusive: 70.8 µM [inhibitor, partial curve, poor fit]	–
CN1C(=O)/C(=C\c2ccc(OC(=O)c3ccco3)cc2)SC1=S	inconclusive: 63.1 µM [inhibitor, partial curve, poor fit]	–
COc1ccc(C(=O)N/C(=C/c2cccnc2)C(=O)N2CCN(C)CC2)cc1OC	inactive	–
O=C(O)CCCC(=O)N1CCN(c2nc(-c3ccccc3)c3cc(Br)ccc3n2)CC1	inactive	–
CC(=O)Nc1ccc(C)cc1	inactive	–
COC(=O)CCC/C=C1/SCC(NC(=O)c2ccccc2)C1O (stereo not drawn)	inactive	–
CC1CC(C)(C)NC(=S)N1CCC(=O)N1CCc2ccccc21 (stereo not drawn)	inconclusive: 44.7 µM [inhibitor, partial curve, poor fit]	–
Cc1noc(C)c1-c1nccc(N(C)C)n1	inconclusive: 50.1 µM [inhibitor, partial curve, poor fit]	–
COc1cc(C)c(CNC2CCCCC2)cc1C	inconclusive: 2.24 µM [inhibitor, full curve, poor fit]	–
COc1ccc(C(=O)Nc2ccc(S(=O)(=O)N(C)c3ccccc3)cc2)cc1	inactive	–

Structure (SMILES)	Potency	activity change, negative = inhibition
O=C(OCn1nnc2ccccc2c1=O)C1CCCCC1	inactive	–
COCCC(=O)N1CCC(Oc2ccc(C(=O)N(C)C3CCCCC3)cc2)CC1	inactive	–
CC(=O)c1ccc(S(=O)(=O)NCCC(=O)O)cc1	inactive	–
O=c1[nH]c2ccccc2n2c(-c3ccccc3)nnc12	inconclusive: 3.16 µM [inhibitor, full curve, poor fit]	–
COc1ccc(CCN2CCC(CN(C)C(=O)c3ccccc3SC)CC2)cc1	inconclusive: 39.8 µM [inhibitor, partial curve]	–
CC(Sc1nnc2c(Cl)cc(C(F)(F)F)cn12)c1ccc(F)cc1 (stereo not drawn)	inactive	–
CC(=O)NCc1ccc(C(=O)CCl)s1	inconclusive: 50.1 µM [inhibitor, partial curve, poor fit]	–
CN(c1ccc(C(=O)NCCCn2ccnc2)cc1)S(C)(=O)=O	–	inconclusive: -33.8% [inhibitor]
CNC(=O)c1ccc(-c2nc(CN3CCc4ccccc43)c(C)o2)cc1	inconclusive: 56.2 µM [inhibitor, partial curve, poor fit]	–
Nc1nc(=S)n(-c2ccccc2)[nH]1	inconclusive: 44.7 µM [inhibitor, partial curve, poor fit]	–
C=CCc1ccc(OCCOCCN(C)C)c(OC)c1	inconclusive: 5.01 µM [inhibitor, full curve, poor fit]	–
CC(C)(C)NC(=O)CN(C(=O)CCC(=O)Nc1nccs1)c1ccc2c(c1)OCCO2	inconclusive: 50.1 µM [inhibitor, partial curve, poor fit]	–
O=C(COC(=O)c1ccccc1C(=O)c1ccccc1)NCCc1ccccc1	inactive	–
CCc1noc(C)c1C(=O)NNC(=O)c1cc(OC)cc(OC)c1	inactive	–
COc1ccccc1Nc1ncc2c(n1)CN(C(=O)c1cc3ccccc3n1C)CCN2	inconclusive: 28.2 µM [inhibitor, full curve, poor fit]	–
CC(=O)N1CCN(C(=O)[C@@]23CCCC[C@H]2N(CCC(C)C)C(=O)CC3)CC1	inactive	–
Cc1cccc(OC[C@H]2C[C@@H](NCc3cccc4c3OCO4)[C@H](O)[C@@H]2O)n1	active: 20 µM	–
O=C1CC(c2ccc(O)c(O)c2)Oc2c1ccc(O)c2O (stereo not drawn)	active: 35.5 µM	–
CN(C)CCCNc1oc(-c2ccc(Cl)cc2)nc1C#N	inconclusive: 12.6 µM [inhibitor, full curve, poor fit]	–
Cc1ccc(-c2cc(-c3ccc(C)cc3)[nH]n2)cc1	inactive	–
Cc1cccc(-c2cc(C(=O)Nc3cccnc3)c3ccccc3n2)c1	inconclusive: 35.5 µM [inhibitor, partial curve]	–
CC(C)(C)c1cc(C(=S)N2CCCC2)cc(C(C)(C)C)c1O	inconclusive: 44.7 µM [inhibitor, partial curve]	–
CN(CCCc1nccn1C)C(=O)c1cn(CCC2CCCCN2)nn1 (stereo not drawn)	inconclusive: 50.1 µM [inhibitor, partial curve]	–
COc1cc2cc(CCCOC(=O)c3cc(OC)c(OC)c(OC)c3)oc(=O)c2cc1OC	inconclusive: 0.199 µM [inhibitor, full curve, poor fit]	–
Cc1ccc(C(=O)NC(NC(C)C)C(Cl)(Cl)Cl)cc1 (stereo not drawn)	inconclusive: 14.1 µM [inhibitor, partial curve, poor fit]	–

Structure (SMILES)	Potency	activity change, negative = inhibition
O=C(O)[C@]12CCCN[C@@H]1CCN(c1cc(N3CCOCC3)ncn1)C2	inactive	–
CCOc1ccc(OCC)c(S(=O)(=O)N2CCOCC2)c1	inconclusive: 0.316 µM [inhibitor, full curve, poor fit]	–
Cc1nn2c(c1-c1ccccc1OCc1ccccc1)N(C(=O)COc1ccccc1C(N)=O)CCC2	inactive	–
O=C1C(=O)N(CCCn2ccnc2)C(c2cccc(Br)c2)/C1=C(\O)c1ccc2c(c1)OCCO2 (stereo not drawn)	inactive	–
COc1ccc(S(=O)(=O)Nc2ccc3cn[nH]c3c2)cc1C	inactive	–
Cc1cc(C(=O)CSc2nnc(-c3ccncc3)n2-c2ccccc2)c(C)n1C	inconclusive: 70.8 µM [inhibitor, single point]	–
O=C(Oc1c2c3c(noc3c3ccccc13)C(Oc1ccc(F)cc1)=CC2=O)c1ccc(F)cc1	inconclusive: 39.8 µM [inhibitor, partial curve]	–
Cc1cccc(C(=O)N2CCC[C@H]2c2nc(-c3ccccc3Cl)no2)c1	inconclusive: 31.6 µM [inhibitor, partial curve]	–
O=C1CCCC(=O)C1CS(=O)(=O)c1ccccc1	inactive	–
NCCOB(c1ccccc1)c1ccccc1	inconclusive: 14.1 µM [inhibitor, partial curve, poor fit]	–
COc1cccc(CN(C)Cc2c(O)ccc3ccccc23)c1	active: 10 µM	–
COc1ccc(C(=O)NC(=S)Nc2ccc(CN3CCOCC3)cc2)cc1	inconclusive: 4.47 µM [inhibitor, full curve, poor fit]	–
CN(C)Cc1cc(O)c(CN(C)C)cc1O	inconclusive: 2.82 µM [inhibitor, full curve, poor fit]	–
Cc1csc(/C(C#N)=N/O)n1	inactive	–
Cn1c(=O)c([N+](=O)[O-])c(NCc2ccccc2)c2ccccc21	inconclusive: 31.6 µM [inhibitor, single point]	–
Nc1nnc(Cc2ccccc2F)s1	inconclusive: 112 µM [inhibitor, single point]	–
Cc1cc(C)c(-c2csc(NC(=O)C3=COCCO3)n2)cc1C	inconclusive: 89.1 µM [inhibitor, single point]	–
CC1(C)C=Cc2cc3ccc(=O)oc3cc2O1	inactive	–
CC1CC(=O)Nc2ccccc2N1C(=O)COc1ccc2ccccc2c1 (stereo not drawn)	inconclusive: 89.1 µM [inhibitor, partial curve, poor fit]	–
Cc1nn(C)cc1C1Nc2ccccc2C(=O)N1O (stereo not drawn)	inconclusive: 31.6 µM [inhibitor, partial curve, poor fit]	–
COc1ccccc1NS(=O)(=O)NC(=O)c1cn(C)c2ccccc12	inconclusive: 50.1 µM [inhibitor, partial curve, poor fit]	–
CC(=O)Oc1ccc2occ(/C=N/c3cc(=O)[nH]c(=S)[nH]3)c(=O)c2c1	inconclusive: 50.1 µM [inhibitor, partial curve, poor fit]	–
Cc1nc(SCC(=O)Nc2cccc(Cl)c2)n[nH]1	inactive	–

Individual results from the list:
CN(C)Cc1cc(O)c(CN(C)C)cc1O – Potency: inconclusive: 2.82 µM [inhibitor, full curve, poor fit]
Cc1nc(SCC(=O)Nc2cccc(Cl)c2)n[nH]1 – Potency: inactive
